Measurements reported in article PMC3704519.
No constants are given. Whether binding was seen depends on the method and setting. Binding seen in cells or lysates may run through a third protein. A result given as binding can be weak or reduced; the word gives no strength. Sequences can lack the tags named with a protein.

Biological target: T1, FLAG-tagged evection-2 (UniProt Q96CS7)
T1 sequence: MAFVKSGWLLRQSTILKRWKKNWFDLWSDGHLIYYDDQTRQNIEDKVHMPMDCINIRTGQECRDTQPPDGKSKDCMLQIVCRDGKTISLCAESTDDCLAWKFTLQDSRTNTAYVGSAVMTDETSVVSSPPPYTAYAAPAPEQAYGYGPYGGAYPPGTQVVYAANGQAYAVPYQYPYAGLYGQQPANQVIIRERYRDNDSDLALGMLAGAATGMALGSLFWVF
Assay: co-IP; FLAG-evection-2 expressed in COS-1 for 24 h; post-nuclear supernatant treated with 0 or 0.1 mM DSP (2 h on ice, quenched with 20 mM Tris-HCl pH 7.4), lysed with 1% Triton X-100 in 25 mM Hepes-NaOH pH 7.3, 150 mM NaCl, 1 mM EDTA; anti-FLAG M2 affinity gel beads 2.5 h at 4°C; western blot; DSP increased the amount of SMAP2 co-precipitated

Substance | binding
GP73 | binds
SMAP2 | binds
